No constants are given. Whether binding was seen depends on the method and setting. Binding seen in cells or lysates may run through a third protein. Some binding calls cover weakened binding; strength is not graded here. For some assays here: Sequences can lack the tags named with a protein.
T1: DEP domain-containing 1 (DEPDC1) (human (endogenous in osteosarcoma cells)) (UniProt Q5TB30)
T1 sequence: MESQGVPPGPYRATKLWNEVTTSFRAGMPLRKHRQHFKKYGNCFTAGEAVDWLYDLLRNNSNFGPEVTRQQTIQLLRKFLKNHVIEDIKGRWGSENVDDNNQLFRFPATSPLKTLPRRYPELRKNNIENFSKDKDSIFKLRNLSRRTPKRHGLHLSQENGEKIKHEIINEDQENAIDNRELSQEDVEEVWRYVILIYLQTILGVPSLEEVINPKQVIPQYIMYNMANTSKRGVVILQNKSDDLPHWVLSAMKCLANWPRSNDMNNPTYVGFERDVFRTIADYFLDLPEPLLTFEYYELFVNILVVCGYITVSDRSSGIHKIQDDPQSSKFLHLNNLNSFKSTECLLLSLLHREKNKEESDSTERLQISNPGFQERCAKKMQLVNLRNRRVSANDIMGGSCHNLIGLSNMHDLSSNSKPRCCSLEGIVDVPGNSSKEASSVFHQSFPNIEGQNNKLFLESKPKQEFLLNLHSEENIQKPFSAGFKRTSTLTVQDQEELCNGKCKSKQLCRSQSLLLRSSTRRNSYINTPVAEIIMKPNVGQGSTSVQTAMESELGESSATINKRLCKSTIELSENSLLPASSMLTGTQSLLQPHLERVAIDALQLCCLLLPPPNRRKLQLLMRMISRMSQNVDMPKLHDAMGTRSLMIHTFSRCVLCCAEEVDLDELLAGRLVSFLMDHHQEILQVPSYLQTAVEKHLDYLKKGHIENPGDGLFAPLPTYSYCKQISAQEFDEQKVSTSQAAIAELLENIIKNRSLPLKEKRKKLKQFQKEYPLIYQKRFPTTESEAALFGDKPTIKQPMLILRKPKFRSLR

By UniProt entry, the sequences of proteins in these tests, tags left out.
UniProt P68104: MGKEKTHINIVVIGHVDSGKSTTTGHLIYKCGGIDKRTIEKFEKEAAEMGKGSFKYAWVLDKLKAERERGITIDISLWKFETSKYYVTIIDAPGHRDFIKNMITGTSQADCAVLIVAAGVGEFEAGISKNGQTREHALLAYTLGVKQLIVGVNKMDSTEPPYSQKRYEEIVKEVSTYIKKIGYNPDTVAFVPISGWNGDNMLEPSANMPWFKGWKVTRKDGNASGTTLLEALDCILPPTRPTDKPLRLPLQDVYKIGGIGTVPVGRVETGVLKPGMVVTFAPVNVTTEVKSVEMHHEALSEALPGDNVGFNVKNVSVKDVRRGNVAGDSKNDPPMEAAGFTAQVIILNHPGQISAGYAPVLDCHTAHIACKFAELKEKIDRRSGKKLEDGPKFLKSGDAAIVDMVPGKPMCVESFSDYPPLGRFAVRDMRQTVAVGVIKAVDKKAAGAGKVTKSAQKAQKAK


Key:
[1] = target: T1, DEP domain-containing 1 (DEPDC1) (human (endogenous in osteosarcoma cells)); assay: co-IP
His-tagged-EEF1A1 = His-tagged-EEF1A1 (UniProt P68104); assay: co-IP

| binding [1] | binding (His-tagged-EEF1A1) | Molecule |
| --- | --- | --- |
| binds | – | Elongation Factor 1-alpha 1 (EEF1A1) (from UniProt P68104 1-462) |
| – | no binding | FLAG-tagged DEPDC1 fragment 181–406 (domain or fragment, UniProt Q5TB30-2 181-406) LSQEDVEEVWRYVILIYLQTILGVPSLEEVINPKQVIPQYIMYNMANTSKRGVVILQNKSDDLPHWVLSAMKCLANWPRSNDMNNPTYVGFERDVFRTIADYFLDLPEPLLTFEYYELFVNILGLLQPHLERVAIDALQLCCLLLPPPNRRKLQLLMRMISRMSQNVDMPKLHDAMGTRSLMIHTFSRCVLCCAEEVDLDELLAGRLVSFLMDHHQEILQVPSYLQ |
| – | binds | FLAG-tagged DEPDC1 fragment 407–527 (domain or fragment, UniProt Q5TB30-2 407-527) TAVEKHLDYLKKGHIENPGDGLFAPLPTYSYCKQISAQEFDEQKVSTSQAAIAELLENIIKNRSLPLKEKRKKLKQFQKEYPLIYQKRFPTTESEAALFGDKPTIKQPMLILRKPKFRSLR |
| – | binds | FLAG-tagged DEPDC1 fragment 15–106 (domain or fragment, UniProt Q5TB30-2 15-106) KLWNEVTTSFRAGMPLRKHRQHFKKYGNCFTAGEAVDWLYDLLRNNSNFGPEVTRQQTIQLLRKFLKNHVIEDIKGRWGSENVDDNNQLFRF |
| – | binds | FLAG-tagged DEPDC1 fragment 107–180 (domain or fragment, UniProt Q5TB30-2 107-180) PATSPLKTLPRRYPELRKNNIENFSKDKDSIFKLRNLSRRTPKRHGLHLSQENGEKIKHEIINEDQENAIDNRE |

— article doi:10.1101/2021.04.14.439766
